The source of these data is publication PMC4804180.

Sequences of proteins named here, by UniProt entry; tags and fusion partners are left off.
UniProt Q02780: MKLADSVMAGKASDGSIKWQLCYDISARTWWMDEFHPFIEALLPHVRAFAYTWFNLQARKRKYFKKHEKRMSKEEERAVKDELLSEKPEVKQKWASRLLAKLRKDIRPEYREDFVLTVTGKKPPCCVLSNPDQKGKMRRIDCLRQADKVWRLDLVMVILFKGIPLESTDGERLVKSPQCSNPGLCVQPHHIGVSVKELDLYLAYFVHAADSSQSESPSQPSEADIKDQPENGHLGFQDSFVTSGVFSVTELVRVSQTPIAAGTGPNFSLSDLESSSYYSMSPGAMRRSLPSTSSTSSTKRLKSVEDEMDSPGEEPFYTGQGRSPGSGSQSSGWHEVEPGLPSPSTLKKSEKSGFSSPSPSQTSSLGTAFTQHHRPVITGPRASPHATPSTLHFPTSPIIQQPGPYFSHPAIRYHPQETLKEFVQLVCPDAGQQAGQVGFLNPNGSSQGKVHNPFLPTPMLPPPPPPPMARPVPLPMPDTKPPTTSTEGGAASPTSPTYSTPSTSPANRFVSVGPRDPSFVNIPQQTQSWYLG

These are yes or no findings as the source states them, for the method shown. In cells and extracts the contact can be indirect. Some results given as binding are weak or reduced against the parent protein; the word gives no strength.

This test addresses T1, Zinc finger- and BTB domain-containing protein 20 (Zbtb20) (mouse) (UniProt Q8K0L9).
T1 sequence: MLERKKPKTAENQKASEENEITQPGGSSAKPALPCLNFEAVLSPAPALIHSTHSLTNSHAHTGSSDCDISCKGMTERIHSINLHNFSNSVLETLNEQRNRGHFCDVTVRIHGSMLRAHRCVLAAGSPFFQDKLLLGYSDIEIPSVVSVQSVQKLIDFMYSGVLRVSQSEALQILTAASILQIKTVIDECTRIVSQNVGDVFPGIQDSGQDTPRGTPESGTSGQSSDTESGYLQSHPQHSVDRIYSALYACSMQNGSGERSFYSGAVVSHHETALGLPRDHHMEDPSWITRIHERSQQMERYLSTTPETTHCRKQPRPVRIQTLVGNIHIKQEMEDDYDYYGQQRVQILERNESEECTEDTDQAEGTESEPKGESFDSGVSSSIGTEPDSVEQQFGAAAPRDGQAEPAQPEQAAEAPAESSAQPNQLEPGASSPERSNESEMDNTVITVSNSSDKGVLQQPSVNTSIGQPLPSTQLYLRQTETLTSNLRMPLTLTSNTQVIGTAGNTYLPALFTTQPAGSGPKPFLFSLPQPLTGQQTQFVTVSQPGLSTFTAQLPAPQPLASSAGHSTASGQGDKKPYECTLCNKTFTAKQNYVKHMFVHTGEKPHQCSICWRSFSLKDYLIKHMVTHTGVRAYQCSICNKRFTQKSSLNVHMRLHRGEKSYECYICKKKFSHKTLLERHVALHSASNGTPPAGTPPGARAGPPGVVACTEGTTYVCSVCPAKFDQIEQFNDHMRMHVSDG
The test is described as follows: co-IP; lysates of transfected cells (50 mM HEPES-NaOH pH 7.5, 50 mM NaCl, 0.5% Triton X-100) incubated 3 h at 4 °C with anti-FLAG M2 affinity gel; washed four times with lysis buffer; blotted for Sox9, NFIA and FLAG.

Turning to “nuclear factor I/A (NFIA) (from UniProt Q02780 1-532)”, the binding entry is on record as “binds”.
